Experimental findings from patent publication US20210155689A1 (SHANGHAI PHARMAEXPLORER, published 2021) are described below.

No constants are given. Whether binding was seen depends on the method and setting. Some binding calls cover weakened binding; strength is not graded here. Sequences can lack the tags named with a protein.

This test addresses T1, human LAG-3 protein with hFc tag (hLAG-3-hFc protein) (human) (UniProt P18627).
T1 sequence: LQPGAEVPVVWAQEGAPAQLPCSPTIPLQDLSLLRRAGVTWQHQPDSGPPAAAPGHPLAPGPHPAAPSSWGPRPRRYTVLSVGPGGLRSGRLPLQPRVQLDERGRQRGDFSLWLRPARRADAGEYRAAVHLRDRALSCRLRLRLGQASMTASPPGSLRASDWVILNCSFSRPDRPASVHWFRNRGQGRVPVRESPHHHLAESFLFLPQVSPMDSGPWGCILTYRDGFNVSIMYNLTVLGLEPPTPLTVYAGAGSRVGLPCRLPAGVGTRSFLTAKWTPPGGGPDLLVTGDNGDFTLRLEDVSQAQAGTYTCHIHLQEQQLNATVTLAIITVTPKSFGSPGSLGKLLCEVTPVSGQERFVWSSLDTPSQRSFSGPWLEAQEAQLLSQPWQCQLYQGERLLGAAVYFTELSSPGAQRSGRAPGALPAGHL
In words: ELISA, hLAG-3-hFc coated. (An ELISA detects its analyte on a solid surface through an enzyme-linked reagent.)

B1: LSECtin-His (ligand, UniProt Q6UXB4 54-293, looked up, not shown: small tags and cut ends)
chain: SKASTERAALLDGHDLLRTNASKQTAALGALKEEVGDCHSCCSGTQAQLQTTRAELGEAQAKLMEQESALRELRERVTQGLAEAGRGREDVRTELFRALEAVRLQNNSCEPCPTSWLSFEGSCYFFSVPKTTWAAAQDHCADASAHLVIVGGLDEQGFLTRNTRGRGYWLGLRAVRHLGKVQGYQWVDGVSLSFSHWNQGEPNDAWGRENCVMMLHTGLWNDAPCDSEKDGWICEKRHNC
In the case of B1, the binding result is listed as “binds”.
